Test results published in paper PMC3191176.
The exact form of at least one protein or probe is not confirmed. At least one result comes from cells or an extract, where the contact may be indirect. For part of these data: A negative result means that nothing was seen under these conditions. For part of these data: A weaker result is weaker than the reference pair of the same experiment.

Chains of the proteins cited; added tags and fusions are not shown. Chains listed by the source or under a name are the forms on record and can include a tag or linker.
UniProt Q9NQB0, whole entry: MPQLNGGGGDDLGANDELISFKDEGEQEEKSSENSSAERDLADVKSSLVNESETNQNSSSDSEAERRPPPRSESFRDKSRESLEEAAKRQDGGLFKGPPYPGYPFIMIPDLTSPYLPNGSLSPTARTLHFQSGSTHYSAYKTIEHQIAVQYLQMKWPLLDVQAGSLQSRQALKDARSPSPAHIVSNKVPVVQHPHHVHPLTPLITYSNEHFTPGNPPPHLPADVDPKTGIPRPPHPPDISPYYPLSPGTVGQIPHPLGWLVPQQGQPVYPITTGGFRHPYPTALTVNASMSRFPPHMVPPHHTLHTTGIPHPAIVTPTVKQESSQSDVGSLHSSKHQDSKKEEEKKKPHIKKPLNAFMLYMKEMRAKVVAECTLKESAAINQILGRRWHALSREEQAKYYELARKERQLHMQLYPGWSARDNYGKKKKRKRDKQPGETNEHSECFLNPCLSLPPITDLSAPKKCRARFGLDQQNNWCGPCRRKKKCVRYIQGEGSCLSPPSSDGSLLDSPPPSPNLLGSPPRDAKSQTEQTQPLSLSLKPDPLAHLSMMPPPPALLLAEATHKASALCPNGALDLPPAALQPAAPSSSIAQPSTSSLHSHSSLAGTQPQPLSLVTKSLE
TCF-4 (Jurkat nuclear extract) + beta-catenin (Jurkat nuclear extract), one chain, as listed by the source, chain 2 of 2: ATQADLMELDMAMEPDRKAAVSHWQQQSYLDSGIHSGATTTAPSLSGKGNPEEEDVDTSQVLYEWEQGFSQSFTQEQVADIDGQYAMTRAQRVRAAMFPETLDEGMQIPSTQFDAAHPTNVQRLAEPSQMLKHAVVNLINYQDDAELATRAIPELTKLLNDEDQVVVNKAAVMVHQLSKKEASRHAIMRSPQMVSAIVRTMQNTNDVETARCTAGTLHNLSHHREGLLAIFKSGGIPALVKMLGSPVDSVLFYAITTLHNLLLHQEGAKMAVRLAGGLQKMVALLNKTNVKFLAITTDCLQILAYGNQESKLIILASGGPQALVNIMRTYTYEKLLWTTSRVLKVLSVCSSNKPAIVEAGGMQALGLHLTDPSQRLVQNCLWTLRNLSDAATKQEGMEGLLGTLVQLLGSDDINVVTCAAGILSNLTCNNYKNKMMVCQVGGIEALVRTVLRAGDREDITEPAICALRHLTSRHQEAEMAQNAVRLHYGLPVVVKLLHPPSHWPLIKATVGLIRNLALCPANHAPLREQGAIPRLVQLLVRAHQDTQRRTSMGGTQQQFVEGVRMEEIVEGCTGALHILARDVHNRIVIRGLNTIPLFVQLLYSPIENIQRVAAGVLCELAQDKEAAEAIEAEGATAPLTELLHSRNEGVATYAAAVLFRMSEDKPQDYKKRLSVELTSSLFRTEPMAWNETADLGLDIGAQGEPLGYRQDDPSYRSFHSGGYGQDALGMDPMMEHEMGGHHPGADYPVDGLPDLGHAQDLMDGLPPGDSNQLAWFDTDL
TCF-4 (Jurkat nuclear extract) + beta-catenin (Jurkat nuclear extract), one chain, as listed by the source, chain 1 of 2: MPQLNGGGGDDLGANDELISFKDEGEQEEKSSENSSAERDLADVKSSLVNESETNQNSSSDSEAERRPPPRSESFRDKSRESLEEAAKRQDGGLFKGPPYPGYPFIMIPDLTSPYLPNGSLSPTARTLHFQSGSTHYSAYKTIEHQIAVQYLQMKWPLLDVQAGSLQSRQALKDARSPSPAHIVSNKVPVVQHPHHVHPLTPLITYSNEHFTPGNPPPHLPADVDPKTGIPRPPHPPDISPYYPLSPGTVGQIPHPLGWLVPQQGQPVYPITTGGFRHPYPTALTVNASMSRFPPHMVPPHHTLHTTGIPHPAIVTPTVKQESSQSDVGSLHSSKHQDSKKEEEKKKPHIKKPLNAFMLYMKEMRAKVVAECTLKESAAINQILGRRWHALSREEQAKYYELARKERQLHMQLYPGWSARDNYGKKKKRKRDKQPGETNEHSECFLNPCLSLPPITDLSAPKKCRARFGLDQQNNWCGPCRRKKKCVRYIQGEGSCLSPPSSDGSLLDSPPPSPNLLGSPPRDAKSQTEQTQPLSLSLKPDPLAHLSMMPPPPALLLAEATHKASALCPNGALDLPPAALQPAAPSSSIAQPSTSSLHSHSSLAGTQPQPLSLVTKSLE

Key:
[1] = target: TCF-4 (antibody-identified, SW480 nuclear extract) (human) (UniProt Q9NQB0); assay: competition with a labelled probe; conditions: 10 mM Tris-HCl pH 7.5, 50 mM NaCl, 1 mM MgCl2, 0.5 mM EDTA, 0.5 mM DTT, 4% glycerol, 50 ug/ml poly(dI-dC), 8 ug nuclear extract, room temperature, 30 min, protein in an extract, label: none (competitor)
[2] = target: TCF-4 (antibody-identified, SW480 nuclear extract) (human) (UniProt Q9NQB0); assay: EMSA, antibody interference; conditions: 10 mM Tris-HCl pH 7.5, 50 mM NaCl, 1 mM MgCl2, 0.5 mM EDTA, 0.5 mM DTT, 4% glycerol, 50 ug/ml poly(dI-dC), 8 ug nuclear extract, room temperature, 30 min, protein in an extract, label: 32P 5'-end
[3] = test system: TCF-4 (Jurkat nuclear extract) + beta-catenin (Jurkat nuclear extract); assay: EMSA, antibody interference; conditions: 10 mM Tris-HCl pH 7.5, 50 mM NaCl, 1 mM MgCl2, 0.5 mM EDTA, 0.5 mM DTT, 4% glycerol, 50 ug/ml poly(dI-dC), 8 ug nuclear extract, room temperature, 30 min, protein in an extract, label: 32P 5'-end
[4] = target: TCF-4 (Jurkat nuclear extract) (human) (UniProt Q9NQB0); assay: EMSA; conditions: 10 mM Tris-HCl pH 7.5, 50 mM NaCl, 1 mM MgCl2, 0.5 mM EDTA, 0.5 mM DTT, 4% glycerol, 50 ug/ml poly(dI-dC), 8 ug nuclear extract, room temperature, 30 min, protein in an extract, label: 32P 5'-end
[5] = target: TCF-4 (antibody-identified, SW480 nuclear extract) (human) (UniProt Q9NQB0); assay: EMSA; conditions: 10 mM Tris-HCl pH 7.5, 50 mM NaCl, 1 mM MgCl2, 0.5 mM EDTA, 0.5 mM DTT, 4% glycerol, 50 ug/ml poly(dI-dC), 8 ug nuclear extract, room temperature, 30 min; protein in an extract; label: 32P 5'-end
[6] = lower band, increased with anti-beta-catenin

Q: Does “AAAACATTGTGAAATACA (double strand) [nonspecific probe (NP)]” bind ([1]; 200x cold NP against labeled TBE1)?
A: Result: no binding

Q: Does “AAAACATTGTGAAATACA (double strand) [nonspecific probe (NP)]” bind ([1]; 200x cold NP against labeled TBE2)?
A: Result: no binding

Q: What does the source list for “GCGAAATACAAAGCAGCT (double strand) [TBE1 (wild-type)]”?
A: binding result ([2]; anti-TCF-4 decreased complex, cold TBE1 200x competes): binds; binding result ([3]; anti-beta-catenin decreased the super-complex): binds; binding result [4, 6]: binds

Q: Does “GCGAAATCCAAACCAGCT (double strand) [mTBE1]” bind [5]?
A: Result: no binding

Q: Does “GCGAAATCCAAACCAGCT (double strand) [mTBE1]” bind [4]?
A: Result: no binding

Q: Which results are given for “GTGGGTGTTTCTTTGAGA (double strand) [TBE2 (-205C allele)]”?
A: binding result ([2]; anti-TCF-4 reduced complex, cold TBE2 competes): binds; binding result ([3]; anti-beta-catenin disrupted the super-complex, cold TBE2 competes): binds; binding result [4, 6]: binds

Q: Which results are given for “GTGGGTGTTTGTTTGAGA (double strand) [mTBE2 (-205G allele)]”?
A: binding result [5]: no binding; binding result ([4]; almost lost binding): binds more weakly
